According to paper PMC5840776:
No constants are given. Whether binding was seen depends on the method and setting. In cells and extracts the contact can be indirect. Some results given as binding are weak or reduced against the parent protein; the word gives no strength. Sequences can lack the tags named with a protein.

The chains behind the UniProt entries cited, without tags or fusion partners.
UniProt Q13177: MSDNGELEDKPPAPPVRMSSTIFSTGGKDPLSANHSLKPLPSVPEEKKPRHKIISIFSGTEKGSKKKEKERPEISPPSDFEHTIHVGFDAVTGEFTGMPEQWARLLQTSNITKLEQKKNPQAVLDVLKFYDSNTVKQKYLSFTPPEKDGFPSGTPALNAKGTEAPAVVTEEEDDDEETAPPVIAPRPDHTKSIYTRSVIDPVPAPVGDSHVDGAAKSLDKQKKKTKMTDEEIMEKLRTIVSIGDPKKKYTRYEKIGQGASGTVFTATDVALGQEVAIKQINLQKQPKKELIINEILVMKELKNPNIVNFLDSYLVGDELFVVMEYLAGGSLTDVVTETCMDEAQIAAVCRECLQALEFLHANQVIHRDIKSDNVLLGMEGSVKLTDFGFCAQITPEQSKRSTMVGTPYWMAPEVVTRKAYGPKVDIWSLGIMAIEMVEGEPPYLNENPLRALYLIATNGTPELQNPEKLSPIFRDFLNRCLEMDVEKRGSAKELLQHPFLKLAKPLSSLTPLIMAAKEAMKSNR
UniProt Q13153: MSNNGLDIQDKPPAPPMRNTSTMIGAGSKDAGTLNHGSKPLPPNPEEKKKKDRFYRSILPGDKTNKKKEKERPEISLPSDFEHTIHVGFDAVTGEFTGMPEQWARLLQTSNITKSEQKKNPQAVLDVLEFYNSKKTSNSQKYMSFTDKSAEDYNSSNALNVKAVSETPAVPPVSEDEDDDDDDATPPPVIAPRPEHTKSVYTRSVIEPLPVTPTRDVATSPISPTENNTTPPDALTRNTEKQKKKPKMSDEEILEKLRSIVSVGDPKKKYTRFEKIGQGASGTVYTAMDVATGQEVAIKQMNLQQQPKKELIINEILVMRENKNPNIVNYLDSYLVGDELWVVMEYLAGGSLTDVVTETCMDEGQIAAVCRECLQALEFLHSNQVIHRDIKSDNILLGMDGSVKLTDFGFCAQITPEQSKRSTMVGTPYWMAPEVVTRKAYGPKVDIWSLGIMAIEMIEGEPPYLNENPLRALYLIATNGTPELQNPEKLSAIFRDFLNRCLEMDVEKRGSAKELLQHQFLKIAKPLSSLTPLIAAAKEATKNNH
UniProt Q9P286: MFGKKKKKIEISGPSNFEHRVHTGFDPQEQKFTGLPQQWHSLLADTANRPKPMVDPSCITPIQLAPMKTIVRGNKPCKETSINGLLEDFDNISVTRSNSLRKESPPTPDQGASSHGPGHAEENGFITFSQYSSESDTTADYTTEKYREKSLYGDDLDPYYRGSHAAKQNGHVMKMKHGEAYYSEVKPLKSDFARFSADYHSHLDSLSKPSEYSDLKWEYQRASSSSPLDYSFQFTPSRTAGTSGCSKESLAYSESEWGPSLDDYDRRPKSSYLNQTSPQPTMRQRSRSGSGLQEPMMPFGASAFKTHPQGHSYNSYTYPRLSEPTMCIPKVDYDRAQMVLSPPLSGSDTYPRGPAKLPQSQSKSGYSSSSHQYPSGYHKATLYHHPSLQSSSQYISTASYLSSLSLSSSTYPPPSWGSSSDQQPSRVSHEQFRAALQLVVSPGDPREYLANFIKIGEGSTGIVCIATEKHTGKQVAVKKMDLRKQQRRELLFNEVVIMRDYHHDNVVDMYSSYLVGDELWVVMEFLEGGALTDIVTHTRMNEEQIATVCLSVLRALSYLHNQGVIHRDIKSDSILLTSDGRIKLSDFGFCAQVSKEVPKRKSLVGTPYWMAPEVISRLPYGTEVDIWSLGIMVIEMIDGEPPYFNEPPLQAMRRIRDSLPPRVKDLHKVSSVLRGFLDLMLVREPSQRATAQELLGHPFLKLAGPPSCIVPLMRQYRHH
UniProt Q9NQU5: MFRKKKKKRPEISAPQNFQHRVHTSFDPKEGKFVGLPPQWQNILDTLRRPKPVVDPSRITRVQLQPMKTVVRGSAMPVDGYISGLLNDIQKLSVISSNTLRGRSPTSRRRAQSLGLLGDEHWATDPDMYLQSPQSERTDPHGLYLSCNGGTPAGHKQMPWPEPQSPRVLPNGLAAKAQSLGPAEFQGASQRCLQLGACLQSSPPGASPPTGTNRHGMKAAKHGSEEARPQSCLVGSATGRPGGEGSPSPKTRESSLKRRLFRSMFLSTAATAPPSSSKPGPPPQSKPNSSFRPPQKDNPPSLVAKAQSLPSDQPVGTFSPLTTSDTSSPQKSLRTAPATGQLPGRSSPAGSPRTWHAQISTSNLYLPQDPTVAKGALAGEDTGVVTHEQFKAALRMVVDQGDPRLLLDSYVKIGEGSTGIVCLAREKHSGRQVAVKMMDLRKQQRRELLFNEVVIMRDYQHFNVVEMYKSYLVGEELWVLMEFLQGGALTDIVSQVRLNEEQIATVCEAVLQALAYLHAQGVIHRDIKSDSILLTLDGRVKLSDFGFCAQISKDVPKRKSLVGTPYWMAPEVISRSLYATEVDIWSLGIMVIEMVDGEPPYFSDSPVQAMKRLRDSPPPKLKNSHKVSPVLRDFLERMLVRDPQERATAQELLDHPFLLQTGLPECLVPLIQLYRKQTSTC

Target: T1, GFP-RhoH (UniProt Q15669)
T1 sequence: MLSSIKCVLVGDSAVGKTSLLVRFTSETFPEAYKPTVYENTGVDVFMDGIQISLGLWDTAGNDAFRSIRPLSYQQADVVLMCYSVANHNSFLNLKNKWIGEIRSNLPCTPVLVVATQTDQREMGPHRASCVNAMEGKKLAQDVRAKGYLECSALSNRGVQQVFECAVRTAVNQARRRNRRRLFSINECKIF
Test: co-IP; COS7 cells transfected with GFP-RhoH and myc epitope-tagged PAKs; after 24 h lysates incubated with GFP-Trap beads (GFP IP), western blot

| Substance | binding |
| --- | --- |
| Myc-PAK2 (from UniProt Q13177 1-524) (enzyme) | binds |
| myc epitope-tagged PAK1 (from UniProt Q13153 1-545) (enzyme) | binds |
| myc epitope-tagged PAK4 (from UniProt O96013-1 1-591) (enzyme) | binds |
| myc epitope-tagged PAK5 (from UniProt Q9P286 1-719) (enzyme) | binds |
| myc epitope-tagged PAK6 (from UniProt Q9NQU5 1-681) (enzyme) | binds |

Target: T2, HA-RhoH (UniProt Q15669)
T2 sequence: T1 sequence
Test: co-IP; COS7 cells transfected with HA-RhoH, GFP-Rac1 and Myc-PAK2; text: RhoH immunoprecipitates; legend: GFP-Trap beads (GFP IP); western blot

| Substance | binding |
| --- | --- |
| Myc-PAK2 (from UniProt Q13177 1-524) (enzyme) | binds |
